These results are taken from patent US20240117030A1.

Results are given in words; binding and its absence hold for the method and conditions named. Some results given as binding are weak or reduced against the parent protein; the word gives no strength.

The target in assay [1] is cynomolgus monkey IL-12 (cynomolgus monkey). Kind of assay: SPR 37°C, antibody captured by anti-human Fc.
For assay [2], the target named is T1, sheep IL-13 (sheep) (UniProt Q0PW91).
T1 sequence: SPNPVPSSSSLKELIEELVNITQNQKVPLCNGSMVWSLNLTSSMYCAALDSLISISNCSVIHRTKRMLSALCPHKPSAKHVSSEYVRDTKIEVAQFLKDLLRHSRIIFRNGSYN
As to the kind of experiment: ELISA: competition with biotinylated human IL-13 for binding to IL13-0001. (In an ELISA, binding on a coated surface is turned into a signal by an enzyme label.)

In assay [3] the target is T1, sheep IL-13 (sheep). As to the kind of experiment: competition ELISA: test species IL-13 against biotinylated human IL-13 for binding to IL13-0001.

B1: p40-0003 (antibody, human IgG1, kappa, V domains shown)
VH: EVQLVQSGAEVKKPGESLKISCKGSGYSFTTYWLGWVRQMPGKGLDWIGIMSPVDSDIRYSPSFQGQVTMSVDKSITTAYLQWNSLKASDTAMYYCARRRPGQGYFDFWGQGTLVTVSS
VL: DIQMTQSPSSLSASVGDRVTITCRASQGISSWLAWYQQKPEKAPKSLIYAASSLQSGVPSRFSGSGSGTDFTLTISSLQPEDFATYYCQQYNIYPYTFGQGTKLEIKR
As to B1, in assay [1], the binding result is recorded as “binds”.

B2: IL13-0001 (antibody, human IgG1, kappa, V domains shown)
VH: EVQLVESGGGLVQPGGSLRLSCAASGFTFSSYAMSWVRQAPGKGLEWVASISSGDTTYYPDSVKGRFTISRDNAKNSLYLQMNSLRAEDTAVYYCARNEGYYFGLTLWGQGTLVTVSS
VL: DIQMTQSPSSLSASVGDRVTITCKASESVDHFGWSLVHWYQQKPGKAPKLLIYRASNLESGVPSRFSGSGSGTDFTLTISSLQPEDFATYYCQQSNEDPWTFGGGTKVEIKR
For B2, the binding result with sheep IL-13 (sheep) [2] and in the assay with sheep IL-13 (sheep) [3] was “binds” each time.
